Results: patent US12351616B2, “Peptides and combination of peptides for use in immunotherapy against esophageal cancer and other cancers” (Immatics Biotechnologies GmbH, priority 2015, dated 2025)

Each substance was assayed on esophageal cancer samples versus a panel of normal tissues (assay: Label-free relative LC-MS quantitation of HLA-presented peptides (presentation profile/score)). Conditions: tumors compared to a panel of normal tissues.
Set-up: species or system human; key: very highly over-presented on tumors compared to a panel of normal tissues (+++); highly over-presented on tumors compared to a panel of normal tissues (++); over-presented on tumors compared to a panel of normal tissues (+)
With “61 (TQTTHELTI; listed as Homo sapiens) [compound 61]” the “Peptide Presentation” value was “+++”. “80 (ALQEALENA; listed as Homo sapiens) [compound 80]” was tested, and the “Peptide Presentation” value was “++”. With “26 (MLAEKLLQA; listed as Homo sapiens) [compound 26]” the “Peptide Presentation” value was “+++”. For “78 (KVANIIAEV; listed as Homo sapiens) [compound 78]”, the “Peptide Presentation” value was “+”. “20 (IIEVDPDTKEML; listed as Homo sapiens) [compound 20]” was tested, and the “Peptide Presentation” value was “+++”. For “22 (KLNDTYVNV; listed as Homo sapiens) [compound 22]”, the “Peptide Presentation” value was “+++”. In the case of “19 (GLAPFLLNAV; listed as Homo sapiens) [compound 19]”, the “Peptide Presentation” value was “+++”. With “88 (GLWEQENHL; listed as Homo sapiens) [compound 88]” the “Peptide Presentation” value was “+”. With “91 (KLIDDVHRL; listed as Homo sapiens) [compound 91]” the “Peptide Presentation” value was “+”. “89 (SLADSLYNL; listed as Homo sapiens) [compound 89]” was tested, and the “Peptide Presentation” value was “+”. In the case of “32 (YMLDIFHEV; listed as Homo sapiens) [compound 32]”, the “Peptide Presentation” value was “+++”. In the case of “58 (LILESIPVV; listed as Homo sapiens) [compound 58]”, the “Peptide Presentation” value was “+++”. With “52 (VAIGGVDGNVRL; listed as Homo sapiens) [compound 52]” the “Peptide Presentation” value was “+++”. In the case of “2 (SLYNLGGSKRISI; listed as Homo sapiens) [compound 2]”, the “Peptide Presentation” value was “+++”. For “84 (SLAESLDQA; listed as Homo sapiens) [compound 84]”, the “Peptide Presentation” value was “+”. In the case of “28 (SLDGFTIQV; listed as Homo sapiens) [compound 28]”, the “Peptide Presentation” value was “+++”. “45 (MLTELEKAL; listed as Homo sapiens) [compound 45]” was tested, and the “Peptide Presentation” value was “+++”. “86 (GLLTEIRAV; listed as Homo sapiens) [compound 86]” was tested, and the “Peptide Presentation” value was “+”. For “41 (GLESEELEPEEL; listed as Homo sapiens) [compound 41]”, the “Peptide Presentation” value was “+”. In the case of “55 (GAIDLLHNV; listed as Homo sapiens) [compound 55]”, the “Peptide Presentation” value was “+++”. “47 (VLASGFLTV; listed as Homo sapiens) [compound 47]” was tested, and the “Peptide Presentation” value was “+++”. With “68 (PAVLQSSGLYSL; listed as Homo sapiens) [compound 68]” the “Peptide Presentation” value was “+++”. “15 (LLANGVYAA; listed as Homo sapiens) [compound 15]” was tested, and the “Peptide Presentation” value was “+++”. In the case of “71 (ASDPILYRPVAV; listed as Homo sapiens) [compound 71]”, the “Peptide Presentation” value was “+”. With “13 (SLSPVILGV; listed as Homo sapiens) [compound 13]” the “Peptide Presentation” value was “+++”. With “12 (GLASRILDA; listed as Homo sapiens) [compound 12]” the “Peptide Presentation” value was “+++”. In the case of “3 (TASAITPSV; listed as Homo sapiens) [compound 3]”, the “Peptide Presentation” value was “+++”. For “30 (SLNGNQVTV; listed as Homo sapiens) [compound 30]”, the “Peptide Presentation” value was “+++”. In the case of “82 (HLLGHLEQA; listed as Homo sapiens) [compound 82]”, the “Peptide Presentation” value was “+++”. For “11 (ALWLPTDSATV; listed as Homo sapiens) [compound 11]”, the “Peptide Presentation” value was “+++”. For “44 (ATGNDRKEAAENSL; listed as Homo sapiens) [compound 44]”, the “Peptide Presentation” value was “+++”. For “14 (RLPNAGTQV; listed as Homo sapiens) [compound 14]”, the “Peptide Presentation” value was “+++”. For “6 (LLSGDLIFL; listed as Homo sapiens) [compound 6]”, the “Peptide Presentation” value was “+++”. With “73 (KITEAIQYV; listed as Homo sapiens) [compound 73]” the “Peptide Presentation” value was “+”. With “62 (ALYEYQPLQI; listed as Homo sapiens) [compound 62]” the “Peptide Presentation” value was “+++”. In the case of “9 (HLIAEIHTA; listed as Homo sapiens) [compound 9]”, the “Peptide Presentation” value was “+++”. “16 (VLAEGGEGV; listed as Homo sapiens) [compound 16]” was tested, and the “Peptide Presentation” value was “+++”. With “87 (FLDNGPKTI; listed as Homo sapiens) [compound 87]” the “Peptide Presentation” value was “+”. For “70 (FVLDTSESV; listed as Homo sapiens) [compound 70]”, the “Peptide Presentation” value was “+”. “72 (FLPPAQVTV; listed as Homo sapiens) [compound 72]” was tested, and the “Peptide Presentation” value was “+”. In the case of “75 (GLMDDVDFKA; listed as Homo sapiens) [compound 75]”, the “Peptide Presentation” value was “+”. For “35 (LLRFSQDNA; listed as Homo sapiens) [compound 35]”, the “Peptide Presentation” value was “+++”. “63 (LAYTLGVKQL; listed as Homo sapiens) [compound 63]” was tested, and the “Peptide Presentation” value was “+++”. “50 (GMNPHQTPAQL; listed as Homo sapiens) [compound 50]” was tested, and the “Peptide Presentation” value was “+++”. In the case of “40 (GLAFSLYQA; listed as Homo sapiens) [compound 40]”, the “Peptide Presentation” value was “+++”. With “33 (GLDVTSLRPFDL; listed as Homo sapiens) [compound 33]” the “Peptide Presentation” value was “+++”. With “36 (FLLRFSQDNA; listed as Homo sapiens) [compound 36]” the “Peptide Presentation” value was “+++”. For “51 (KLFGHLTSA; listed as Homo sapiens) [compound 51]”, the “Peptide Presentation” value was “+++”. With “66 (LLDEKVQSV; listed as Homo sapiens) [compound 66]” the “Peptide Presentation” value was “+”. For “64 (GLTDVIRDV; listed as Homo sapiens) [compound 64]”, the “Peptide Presentation” value was “++”. In the case of “25 (LLPPPPPPA; listed as Homo sapiens) [compound 25]”, the “Peptide Presentation” value was “+++”. “21 (IVREFLTAL; listed as Homo sapiens) [compound 21]” was tested, and the “Peptide Presentation” value was “+++”. For “37 (YTQPFSHYGQAL; listed as Homo sapiens) [compound 37]”, the “Peptide Presentation” value was “+++”. With “81 (AVLPHVDQV; listed as Homo sapiens) [compound 81]” the “Peptide Presentation” value was “+++”. “48 (SMHQMLDQTL; listed as Homo sapiens) [compound 48]” was tested, and the “Peptide Presentation” value was “+++”. In the case of “10 (SLDENSDQQV; listed as Homo sapiens) [compound 10]”, the “Peptide Presentation” value was “+++”. In the case of “24 (LLFAGTMTV; listed as Homo sapiens) [compound 24]”, the “Peptide Presentation” value was “+++”. With “4 (ALFGTILEL; listed as Homo sapiens) [compound 4]” the “Peptide Presentation” value was “++”. For “77 (VLVPYEPPQV; listed as Homo sapiens) [compound 77]”, the “Peptide Presentation” value was “++”. In the case of “23 (KLSDSATYL; listed as Homo sapiens) [compound 23]”, the “Peptide Presentation” value was “+++”. For “92 (SILRHVAEV; listed as Homo sapiens) [compound 92]”, the “Peptide Presentation” value was “+”. In the case of “18 (FLLDQVQLGL; listed as Homo sapiens) [compound 18]”, the “Peptide Presentation” value was “+++”. For “5 (NLMASQPQL; listed as Homo sapiens) [compound 5]”, the “Peptide Presentation” value was “+++”. With “17 (MISRTPEV; listed as Homo sapiens) [compound 17]” the “Peptide Presentation” value was “+++”. With “94 (TLLQEQGTKTV; listed as Homo sapiens) [compound 94]” the “Peptide Presentation” value was “+”. For “38 (IAAIRGFLV; listed as Homo sapiens) [compound 38]”, the “Peptide Presentation” value was “+++”. “59 (SLLDTLREV; listed as Homo sapiens) [compound 59]” was tested, and the “Peptide Presentation” value was “+++”. “7 (SIFEGLLSGV; listed as Homo sapiens) [compound 7]” was tested, and the “Peptide Presentation” value was “+++”. In the case of “57 (GLAPNTPGKA; listed as Homo sapiens) [compound 57]”, the “Peptide Presentation” value was “+++”. For “27 (NLREGDQLL; listed as Homo sapiens) [compound 27]”, the “Peptide Presentation” value was “+++”. In the case of “1 (STYGGGLSV; listed as Homo sapiens) [compound 1]”, the “Peptide Presentation” value was “+++”. For “29 (SLDGTELQL; listed as Homo sapiens) [compound 29]”, the “Peptide Presentation” value was “+++”. In the case of “8 (ALLDGGSEAYWRV; listed as Homo sapiens) [compound 8]”, the “Peptide Presentation” value was “+++”. With “39 (LVRDTQSGSL; listed as Homo sapiens) [compound 39]” the “Peptide Presentation” value was “+++”. With “34 (SLVSEQLEPA; listed as Homo sapiens) [compound 34]” the “Peptide Presentation” value was “+”. “65 (YVVGGFLYQRL; listed as Homo sapiens) [compound 65]” was tested, and the “Peptide Presentation” value was “+++”.

These substances were tested on other cancer tissue samples (assay: LC-MS detection of the peptide on other cancer samples (FIG. 1 legend)). Conditions: positive/measured colorectal cancer samples.
Set-up: species or system human
For “SEQ ID NO: 34 (SLVSEQLEPA; listed as Homo sapiens)”, the “peptide additionally detected on colorectal cancers” value was 8/24.

Same assay, conditions: positive/measured gallbladder cancer samples
In the case of “SEQ ID NO: 7 (SIFEGLLSGV; listed as Homo sapiens)”, the “peptide additionally detected on gallbladder cancers” value was 1/3.

Same assay, conditions: positive/measured gastric cancer samples
For “SEQ ID NO: 34 (SLVSEQLEPA; listed as Homo sapiens)”, the “peptide additionally detected on gastric cancers” value was 1/46. For “SEQ ID NO: 37 (YTQPFSHYGQAL; listed as Homo sapiens)”, the “peptide additionally detected on gastric cancers” value was 7/46.

Same assay, conditions: positive/measured lung cancer samples
For “SEQ ID NO: 34 (SLVSEQLEPA; listed as Homo sapiens)”, the “peptide additionally detected on lung cancers” value was 5/91. “SEQ ID NO: 1 (STYGGGLSV; listed as Homo sapiens)” was tested, and the “peptide additionally detected on lung cancers” value was 4/91. In the case of “SEQ ID NO: 37 (YTQPFSHYGQAL; listed as Homo sapiens)”, the “peptide additionally detected on lung cancers” value was 1/91. For “SEQ ID NO: 7 (SIFEGLLSGV; listed as Homo sapiens)”, the “peptide additionally detected on lung cancers” value was 5/91.

Same assay, conditions: positive/measured ovarian cancer samples
“SEQ ID NO: 34 (SLVSEQLEPA; listed as Homo sapiens)” was tested, and the “peptide additionally detected on ovarian cancers” value was 1/20. In the case of “SEQ ID NO: 7 (SIFEGLLSGV; listed as Homo sapiens)”, the “peptide additionally detected on ovarian cancers” value was 1/20.

Same assay, conditions: positive/measured pancreatic cancer samples
With “SEQ ID NO: 37 (YTQPFSHYGQAL; listed as Homo sapiens)” the “peptide additionally detected on pancreatic cancers” value was 1/19.

Same assay, conditions: positive/measured prostate cancer samples
“SEQ ID NO: 7 (SIFEGLLSGV; listed as Homo sapiens)” was tested, and the “peptide additionally detected on prostate cancers” value was 1/43.

Same assay, conditions: positive/measured urinary bladder cancer samples
With “SEQ ID NO: 34 (SLVSEQLEPA; listed as Homo sapiens)” the “peptide additionally detected on urinary bladder cancers” value was 2/4. In the case of “SEQ ID NO: 7 (SIFEGLLSGV; listed as Homo sapiens)”, the “peptide additionally detected on urinary bladder cancers” value was 1/4.
